Tested on: HCY-concentration in whole blood
Assay: Stabilization of the homocysteine (HCY) concentration in withdrawn whole blood stored in monovettes with stabilizer
Type: cell-based
Conditions: for HCY VK (variation coefficient): over the HCY stabilization duration, room temperature
Method: Material Used and Processes
The following inhibitors of methyl transferase or S-adenosylhomocysteine hydrolase have been tested
The effectiveness of the inhibitors have been tested in combination with the following acids:
The compositions of further reagents have been:
Mixture A: 5(4)-AMCA (5.2 mg) and DEOA (3.2 mg), dissolved in 500 μl phosphate buffer.
Composition of the buffer for mixture A:
All other substances have been dissolved in water.
Blood Withdrawal and Treatment of Samples
Corresponding amounts of stabilizers have been provided in EDTA- or Na-heparin-monovettes for each Example or Comparative Example (see Table 1). The blood withdrawal has been carried out in monovettes with and without stabilizers. For the control value, the monovettes have been centrifuged within 30 minutes after withdrawal.

Structure (SMILES)	HCY VK (variation coefficient) (whole blood)	variation coefficient VK of HCY (whole blood, 143 hours)	variations of the measured values, homocysteine (in 60 hours)
Nc1nccc2c1ncn2[C@@H]1C=C(CO)[C@@H](O)[C@H]1O [Ex. 14, 3-deazaneplanocin A]	(VK4.2%)	< 5%	–
O=C1O[C@H]([C@@H](O)CO)C(O)=C1O [Cmp.-Ex. 2, ascorbic acid]	(VK: 8%)	–	–
O=C(O)/C=C/C(=O)O [Cmp.-Ex. 3, fumaric acid]	(VK: 8%)	–	–
Nc1nccc2c1ncn2[C@@H]1O[C@H](CO)[C@@H](O)[C@H]1O [Cmp.-Ex. 1, 3-deazaadenosin]	(VK: 6%)	–	up to 2 μmol/l
Nc1ncnc2c1ncn2[C@@H]1C=C(CO)[C@@H](O)[C@H]1O [Ex. 13, neplanocin A]	VK(4.5%)	–	–
